According to paper PMC9443474:
These are yes or no findings as the source states them, for the method shown. Binding seen in cells or lysates may run through a third protein. Some entries that bind do so weakly or less than the wild type. For part of these data: Tags and fused reporters may be left off the sequences shown.

Protein sequences, listed by entry. Tags and fused reporters are not part of them.
UniProt Q01105: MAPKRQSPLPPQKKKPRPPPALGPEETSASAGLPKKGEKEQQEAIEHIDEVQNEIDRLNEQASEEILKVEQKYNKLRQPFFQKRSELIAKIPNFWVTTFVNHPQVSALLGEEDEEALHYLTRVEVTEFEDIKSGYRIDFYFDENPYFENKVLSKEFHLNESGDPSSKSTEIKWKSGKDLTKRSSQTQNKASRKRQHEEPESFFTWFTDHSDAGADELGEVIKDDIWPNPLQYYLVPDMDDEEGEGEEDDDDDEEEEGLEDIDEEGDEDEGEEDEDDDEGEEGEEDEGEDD

T1: endogenous TRIM4 (human (endogenous in MCF7)) (UniProt Q9C037)
T1 sequence: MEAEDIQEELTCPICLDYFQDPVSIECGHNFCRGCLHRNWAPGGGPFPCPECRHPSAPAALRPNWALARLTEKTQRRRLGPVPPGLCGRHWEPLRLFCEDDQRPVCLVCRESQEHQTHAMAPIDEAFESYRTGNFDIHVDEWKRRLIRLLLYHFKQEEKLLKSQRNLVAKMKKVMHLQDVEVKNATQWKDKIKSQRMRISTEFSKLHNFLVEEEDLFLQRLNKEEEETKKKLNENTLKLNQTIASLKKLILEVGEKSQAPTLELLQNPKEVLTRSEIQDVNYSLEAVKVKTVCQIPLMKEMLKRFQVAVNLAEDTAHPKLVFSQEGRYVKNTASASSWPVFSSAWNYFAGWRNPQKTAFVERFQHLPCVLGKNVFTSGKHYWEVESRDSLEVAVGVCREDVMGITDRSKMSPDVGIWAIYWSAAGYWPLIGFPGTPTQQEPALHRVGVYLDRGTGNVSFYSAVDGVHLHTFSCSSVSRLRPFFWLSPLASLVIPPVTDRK

T2: TRIM4 (bait of the mass spectrometry-based formaldehyde cross-linking assay) (human (in MCF7 cells)) (UniProt Q9C037)
T2 sequence: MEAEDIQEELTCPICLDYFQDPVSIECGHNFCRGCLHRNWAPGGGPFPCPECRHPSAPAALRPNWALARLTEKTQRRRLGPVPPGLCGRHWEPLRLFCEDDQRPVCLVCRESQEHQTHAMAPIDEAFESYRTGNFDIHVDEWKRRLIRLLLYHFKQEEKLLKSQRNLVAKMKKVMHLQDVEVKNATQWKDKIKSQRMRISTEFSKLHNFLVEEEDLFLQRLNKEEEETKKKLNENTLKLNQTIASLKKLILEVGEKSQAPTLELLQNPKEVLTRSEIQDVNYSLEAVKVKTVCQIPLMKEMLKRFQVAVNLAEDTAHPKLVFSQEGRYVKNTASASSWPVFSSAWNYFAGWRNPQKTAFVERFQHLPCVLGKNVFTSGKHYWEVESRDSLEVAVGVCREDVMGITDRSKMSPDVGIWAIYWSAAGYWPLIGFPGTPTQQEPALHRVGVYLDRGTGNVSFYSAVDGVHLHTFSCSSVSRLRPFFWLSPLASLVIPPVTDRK


Assays:
[1] = molecular target: T1, endogenous TRIM4 (human (endogenous in MCF7)); assay: co-IP; endogenous proteins in MCF7 cell lysates; IP with anti-TRIM4 or anti-SET, immunoblot
[2] = molecular target: T2, TRIM4 (bait of the mass spectrometry-based formaldehyde cross-linking assay) (human (in MCF7 cells)); assay: cross-linking; mass spectrometry-based formaldehyde cross-linking assay in MCF7 cells; candidate TRIM4 binding proteins identified by mass spectrometry
[3] = molecular target: Myc-SET (wild-type SET) (UniProt Q01105); assay: co-IP; HEK293T cells transfected with Flag-TRIM4 (WT or truncation mutants) and Myc-tagged SET (WT or truncation mutants) or H3.3C; lysates 48 h after transfection, IP with anti-Myc or anti-Flag and protein A/G agarose for 8 h, beads washed five times with NP-40 buffer, immunoblot

Row | Molecule | binding [1] | binding [2] | binding [3]
1 | endogenous SET (from UniProt Q01105 1-290) | binds | binds | –
2 | Flag-TRIM4 (wild-type TRIM4) (protein, UniProt Q9C037 1-500) MEAEDIQEELTCPICLDYFQDPVSIECGHNFCRGCLHRNWAPGGGPFPCPECRHPSAPAALRPNWALARLTEKTQRRRLGPVPPGLCGRHWEPLRLFCEDDQRPVCLVCRESQEHQTHAMAPIDEAFESYRTGNFDIHVDEWKRRLIRLLLYHFKQEEKLLKSQRNLVAKMKKVMHLQDVEVKNATQWKDKIKSQRMRISTEFSKLHNFLVEEEDLFLQRLNKEEEETKKKLNENTLKLNQTIASLKKLILEVGEKSQAPTLELLQNPKEVLTRSEIQDVNYSLEAVKVKTVCQIPLMKEMLKRFQVAVNLAEDTAHPKLVFSQEGRYVKNTASASSWPVFSSAWNYFAGWRNPQKTAFVERFQHLPCVLGKNVFTSGKHYWEVESRDSLEVAVGVCREDVMGITDRSKMSPDVGIWAIYWSAAGYWPLIGFPGTPTQQEPALHRVGVYLDRGTGNVSFYSAVDGVHLHTFSCSSVSRLRPFFWLSPLASLVIPPVTDRK | – | – | binds
